Reference: PubChem BioAssay AID2685 (National Center for Advancing Translational Sciences (NCATS), 2010)
This is one part of the list. Further columns of the screen follow, without active or inactive calls. The list favours compounds with an active or inconclusive main result. Words in brackets tell the shape of the fitted curve; partial curves, single points and poor fits give uncertain potencies.

Test: qHTS Assay for Lipid Storage Modulators in Drosophila S3 Cells;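 on cell number change: cells counted by Cell Tracker Red CMTPX staining in the red channel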
Conditions: BODIPY lipid droplet fluorescence, 18-24 h; for cell number change: measured here: cell count max response, cells fed with added oleic acid
Method in brief: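 Drosophila S3 cells loaded with oleic acid (400 uM, as added) and compounds at several concentrations; lipid droplets imaged by 488-nm laser-scanning cytometry, 500–530 nm intensity and object ratio to cell channel. Percent activity normalized to 20 uM Triacsin C.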

[1] = measured here: lipid fluorescence (Fed channel) AC50, cells fed with added oleic acid
[2] = measured here: cell number channel AC50, cells fed with added oleic acid

Compound | cell number change [%] | AC50 [1] | AC50 [2]
COc1ccccc1NC(=S)NC(=O)c1ccc(Cn2cc(Br)cn2)cc1 | 24.4 | 6.51 µM [rising, partial curve, poor fit] | 
CCOc1ccc(N(CC(=O)NC2CCCCC2)C(=O)CCCC(=O)Nc2ccccn2)cc1 | 13.9 | 29.1 µM [falling, partial curve, poor fit] | 
O=C1C2C3C=CC(C2C(=O)N1C1CCCCC1)C1C(=O)N(C2CCCCC2)C(=O)C31 (centres undefined) | 22.5 | 3.26 µM [rising, single point] | 
CCOC(=O)c1cnn(-c2ccccc2)c1-n1cccc1C(=O)C(=O)Nc1ccc(F)cc1 | -26.9 | 5.8 µM [falling, partial curve] | 
C=CCNCC(=O)NN=C(c1ccccc1)c1ccccc1 |  | 29.1 µM [rising, single point] | 
CC12CC3CC(C)(C1)CC(C(=O)NCc1ccco1)(C3)C2 | -17.1 |  | 
COc1ccccc1NC(=O)N1CCCC(C(=O)Nc2cccc(C)c2C)C1 (centres undefined) |  |  | 6.51 µM [rising, single point]
CCOC(=O)c1c(NC(=O)C2C3CCC(O3)C2C(=O)O)sc2c1CCC(CC)C2 (centres undefined) | 31.6 |  | 32.6 µM [rising, single point]
CC1CCN(C(=S)c2ccccc2O)CC1 |  | 0.231 µM [falling, full curve, poor fit] | 
Cc1ccc2c(COC(=O)c3ccc(NC(=O)CC#N)cc3)cc(=O)oc2c1C | 33.5 |  | 7.31 µM [rising, partial curve]
O=C(Nc1ccc2c(c1)CCC2)c1cc(F)cc(F)c1 | 2.71 | 23.1 µM [falling, single point] | 
CCn1c(COc2ccccc2C)nnc1SCC(=O)CC(=O)Nc1ccccc1OC | 9.72 | 2.59 µM [rising, full curve] | 
CCC(C)Cn1c(C)nc2ccccc21 (centres undefined) | -9.66 | 1.16 µM [rising, single point] | 
Cc1ccc(NC(=O)CSc2ccc3c(c2)OCCO3)c(O)c1 | 31.6 |  | 18.4 µM [rising, partial curve, poor fit]
CC(C)CC(C(=O)N1CCOCC1)N1Cc2ccccc2C1=O (centres undefined) | -12.5 |  | 
COc1cccc(NC(=O)C2CCCN(S(=O)(=O)c3ccc(-n4cnnn4)cc3)C2)c1 (centres undefined) | 14.5 |  | 
O=C(Nc1ccc2c(c1)OCO2)C1CCCN1C(=O)OCc1ccccc1 (centres undefined) | -16.8 | 5.8 µM [rising, full curve, poor fit] | 
Cc1ccc(Cn2c(SCC(=O)N(C)C3CCS(=O)(=O)C3)nc3ccccc3c2=O)cc1 (centres undefined) | -75 |  | 1.64 µM [falling, partial curve]
Cc1ccc(S(=O)(=O)N2CCCC2CNC(=O)C(=O)NCc2cccs2)cc1 (centres undefined) | -25 |  | 4.11 µM [falling, single point]
O=C(CSc1nc(O)c(Cc2ccccc2)c(=O)[nH]1)Nc1nnc(SCc2ccccc2)s1 | -14.6 |  | 
CC1CCC2(CC1)NC(=O)N(CC(=O)Nc1cccc(S(=O)(=O)N3CCOCC3)c1)C2=O (centres undefined) | -45 | 18.4 µM [falling, single point] | 14.6 µM [falling, single point]

Grouped by structure: the entries above with fluorine.
Compound | cell number change [%] | AC50 [1] | AC50 [2]
CCOC(=O)c1cnn(-c2ccccc2)c1-n1cccc1C(=O)C(=O)Nc1ccc(F)cc1 | -26.9 | 5.8 µM [falling, partial curve] | 
O=C(Nc1ccc2c(c1)CCC2)c1cc(F)cc(F)c1 | 2.71 | 23.1 µM [falling, single point] | 

The results go on:

Compound | cell number change [%] | AC50 [1] | AC50 [2]
O=C(CCCCCNc1nc(=S)[nH]c2ccccc12)NCCc1ccc(Cl)cc1 | 22.2 |  | 
Cc1cc(Nc2ccc(F)c(Cl)c2)n2nc(C)nc2n1 | 18.9 | 9.2 µM [rising, partial curve, poor fit] | 
Cc1cc(C)c(C(N)=O)c(SCC(=O)c2ccc(Cl)cc2)n1 |  | 29.1 µM [rising, single point] | 
O=C(CSc1nnc(COc2ccc(Cl)cc2)o1)N1c2ccccc2CCc2ccccc21 | -30.2 | 29.1 µM [falling, single point] | 29.1 µM [falling, single point]
CCCCCc1c(C)nc(N2CCOCC2)[nH]c1=O | -24.4 | 0.731 µM [falling, full curve, poor fit] | 0.411 µM [falling, full curve, poor fit]
CC(=O)c1sc2c(c1N)c(=O)[nH]c(=O)n2-c1ccccc1 | 1.41 |  | 6.51 µM [rising, single point]
O=C(Cc1ccccc1)NNC(=O)Nc1cccc(Cl)c1 | 21.4 |  | 
O=C(C1CCN(S(=O)(=O)c2ccccc2)CC1)N1CCN(c2ccccc2F)CC1 | -14 | 0.651 µM [rising, full curve, poor fit] | 
Cc1nc(N)c(Br)c(C)c1Br | -11.1 | 0.00461 µM [falling, full curve, poor fit] | 
Cn1c(CC(=O)NNC(=O)c2ccccc2F)nc2ccccc21 | 21.6 | 1.84 µM [falling, partial curve] | 2.06 µM [falling, partial curve]
C/C(N)=C(/C#N)C(=O)CSc1nnc(Nc2c(C)cccc2C)s1 | -5.96 | 0.0651 µM [rising, partial curve, poor fit] | 
CCN(CC(=O)Nc1ccc(OC)cc1)CC(=O)N1CC(=O)Nc2ccccc21 | 2.69 | 1.46 µM [falling, partial curve] | 
O=C(c1ccc(N2CCN(S(=O)(=O)c3ccccc3)CC2)c([N+](=O)[O-])c1)N1CCOCC1 | 8.8 | 29.1 µM [rising, single point] | 
S=C(NCCCc1ccccc1)Nc1ccccc1 | -17.1 | 0.58 µM [rising, single point] | 
CCOC(=O)c1nn(-c2ccc(C)c(Cl)c2)c(=O)c(C#N)c1C | 1.01 | 0.184 µM [rising, partial curve, poor fit] | 
O=C(O)C(=O)/C(=C\c1cccc(Cl)c1)c1ccc2ccccc2n1 | 38.4 |  | 
CCN1C(=O)N[C@@H](CCc2ccccc2)[C@@H](C(=O)OC)[C@H]1C | -30.9 | 20.6 µM [falling, single point] | 16.4 µM [falling, single point]
CCOC(=O)/C(C#N)=C/c1cc2ccccc2nc1N1CCCCC1 | -21.5 | 2.06 µM [falling, partial curve, poor fit] | 
NC(=O)C1(N2CCCCC2)CCN(Cc2ccccc2Cl)CC1 | 10.6 | 0.00461 µM [falling, full curve, poor fit] | 
CC1CCCCC12NC(=O)N(CC(=O)Nc1cccc(S(=O)(=O)N3CCCCC3)c1)C2=O (centres undefined) | 1.94 | 0.731 µM [rising, single point] | 
COc1ccc(OC)c(S(=O)(=O)N2CCC(C(=O)NCc3ccc4c(c3)OCO4)CC2)c1 |  | 6.51 µM [rising, single point] | 

Looked up above.
cell number change [%], Cc1nc(N)c(Br)c(C)c1Br is entered as -11.1
cell number change [%], O=C(Cc1ccccc1)NNC(=O)Nc1cccc(Cl)c1 is entered as 21.4

More compounds.

Compound | cell number change [%] | AC50 [1] | AC50 [2]
O=C(Nc1cccc(C(F)(F)F)c1)/C(=C/c1ccco1)NC(=O)c1cccs1 | -5.2 |  | 
CCN(CC)CCn1c(NCc2cccc(OC)c2)nc2ccccc21 | -8.64 | 3.66 µM [falling, partial curve] | 
Cc1cccc(NC(=O)c2ccc3nccnc3c2)n1 | -18.5 | 1.64 µM [falling, partial curve] | 
CCCC(c1nnnn1CCOC)N(Cc1cc2cc(C)c(C)cc2[nH]c1=O)CC1CCCO1 (centres undefined) | 2.58 | 0.00411 µM [rising, full curve, poor fit] | 
O=C(CC(C(=O)O)c1ccc(Cl)cc1)c1ccccc1 (centres undefined) | -54.5 | 23.1 µM [falling, single point] | 5.17 µM [falling, full curve]
O=[N+]([O-])c1ccc(NC(=S)N2CCc3ccccc3C2)cc1 | -16.5 |  | 1.46 µM [rising, full curve, poor fit]
COc1ccc(N2CCN(S(=O)(=O)c3cn(C)cn3)CC2)cc1 | 22 | 3.26 µM [rising, partial curve] | 
CSCCC(NC(=O)c1ccccc1Cl)C(=O)N1CCC1 (centres undefined) | 2 |  | 
CCOC(=O)N1CCN(c2nc(SC)nc3sc4c(c23)CC(C)(C)OC4)CC1 | 28.8 | 4.61 µM [rising, single point] | 
Cc1ccc(-c2nnc(Nc3ccccc3)c3ccccc23)cc1S(=O)(=O)NCC1CCCO1 (centres undefined) | -38.1 |  | 14.6 µM [falling, partial curve, poor fit]
COc1cccc(NC(=O)CN(C)C(=O)c2cccnc2Sc2ccc(C)c(C)c2)c1 | 10.4 | 2.06 µM [falling, partial curve] | 
CN1C(=O)C(N=Nc2ccccc2C(=O)O)N(C)C1=S (centres undefined) | 15.6 | 4.11 µM [falling, single point] | 
Cn1c(-c2cccc3ccccc23)n[nH]c1=S | 17.7 | 6.51 µM [falling, single point] | 
COc1cc(/C=C/C(=O)OCC(=O)NC(=O)NC(C)C)ccc1OCC#N | 22.8 | 18.4 µM [rising, single point] | 
Cc1cc(C)cc(NC(=O)CSc2nc3[nH]ncc3c(=O)[nH]2)c1 | 10.7 |  | 
COc1ccc(NCC(=O)Nc2ccc(Cl)cc2C)c(OC)c1 | 48.7 | 2.06 µM [rising, full curve] | 1.64 µM [rising, full curve, poor fit]
CCOc1ccc2nc(N3CCOCC3)nc(C)c2c1 | 89 | 9.2 µM [rising, partial curve] | 7.31 µM [rising, partial curve]
Cc1ccc(N(C(=O)c2csnn2)C(C(=O)NC2CCCC2)c2ccccn2)c(C)c1 (centres undefined) | 6.67 | 4.61 µM [rising, single point] | 
CCCN(Cc1cc2cc(C)ccc2[nH]c1=O)C(=O)c1cccc(OC)c1 |  | 29.1 µM [falling, single point] | 
